Data published in the supplement of paper PMC10331698.
± gives the standard deviation of the averaged measurements. Small differences around the control level are noise.

Experiments:
Assay in all cases: level (log10 ratio to DMSO vehicle control); higher = higher biomarker level / cell amount than vehicle control
[1] = compound: CCN(CCO)S(=O)(=O)C(F)(F)C(F)(F)C(F)(F)C(F)(F)C(F)(F)C(F)(F)C(F)(F)C(F)(F)F [N-Ethyl-N-(2-hydroxyethyl)perfluorooctanesulfonamide]; details: in DMSO
Description: (§1)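 BioMAP Diversity Plus panel of 12 human primary cell co-culture systems (3C, 4H, LPS, SAg, BT, BF4T, BE3C, CASM3C, HDF3CGF, KF3CT, MyoF, Mphg). Compounds were added 1 h before stimulation and left for 24 h (MyoF 48 h; BT 72 h for soluble read-outs or 6 d for IgG). Biomarkers were read by ELISA, cytotoxicity by SRB, PBMC viability and proliferation by Alamar Blue. Each well value was divided by the mean of 8 DMSO control wells on the same plate and log10 transformed; duplicate blinded samples were tested at 4 concentrations.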

[2] = compound: O=C(O)C(F)(F)C(F)(F)C(F)(F)OC(F)(F)F [Perfluoro(4-methoxybutanoic) acid]; details: 2200 nM; in DMSO
Description: as §1

[3] = compound: O=C(O)C(F)(F)C(F)(F)C(F)(F)C(F)(F)C(F)(F)C(F)(F)C(F)(F)C(F)(F)C(F)(F)C(F)F [11-H-Perfluoroundecanoic acid]; details: 2200 nM; in DMSO
Description: as §1

[4] = compound: NC(=O)C(F)(F)C(F)(F)C(F)(F)F [Heptafluorobutyramide]; details: 2200 nM; in DMSO
Description: as §1

[5] = compound: CC(C)(C)C(=O)CC(=O)C(F)(F)C(F)(F)C(F)(F)F [(Heptafluorobutanoyl)pivaloylmethane]; details: 2200 nM; in DMSO
Description: as §1

[6] = compound: FC(F)(F)C(F)(F)C(F)(F)C(F)(F)C(F)(F)C(F)(F)CC1CO1 [3-(Perfluorohexyl)-1,2-epoxypropane]; details: 2200 nM; in DMSO
Description: as §1

[7] = compound: OCCC(F)(F)C(F)(F)C(F)(F)C(F)(F)C(F)(F)C(F)(F)F [6:2 Fluorotelomer alcohol]; details: 2200 nM; in DMSO
Description: as §1

[8] = compound: NCC(F)(F)C(F)(F)C(F)(F)C(F)(F)C(F)(F)C(F)(F)C(F)(F)F [1H,1H-Perfluorooctylamine]; details: 2200 nM; in DMSO
Description: as §1

[9] = compound: O=C(O)C(F)(F)C(F)(F)C(F)(F)C(F)(F)C(=O)O [Octafluoroadipic acid]; details: 2200 nM; in DMSO
Description: as §1

[10] = compound: O=S(=O)(O)CCC(F)(F)C(F)(F)C(F)(F)C(F)(F)C(F)(F)C(F)(F)C(F)(F)C(F)(F)F [8:2 Fluorotelomer sulfonic acid]; details: in DMSO
Description: as §1

[11] = compound: CCCCCCCCC(F)(F)C(F)(F)C(F)(F)C(F)(F)C(F)(F)C(F)(F)F [1-(Perfluorohexyl)octane]; details: in DMSO
Description: as §1

[12] = compound: Cc1ccc(S(=O)(=O)OCC(F)(F)C(F)(F)C(F)(F)C(F)(F)C(F)(F)C(F)F)cc1 [1H,1H,7H-Perfluoroheptyl 4-methylbenzenesulfonate]; details: 2200 nM; in DMSO
Description: as §1

[13] = compound: O=C(O)C(F)(F)C(F)(F)C(F)(F)C(F)(F)C(F)(F)C(F)(F)F [Perfluoroheptanoic acid]; details: in DMSO
Description: as §1

[14] = compound: O=C(O)C(F)(F)C(F)(F)C(F)(F)C(F)(F)F [Perfluoropentanoic acid]; details: in DMSO
Description: as §1

[15] = compound: CN(C(=O)C(F)(F)C(F)(F)C(F)(F)F)[Si](C)(C)C [N-Methyl-N-trimethylsilylheptafluorobutyramide]; details: 2200 nM; in DMSO
Description: as §1

[16] = compound: OCC(F)(F)C(F)(F)C(F)(F)F [1H,1H-Heptafluorobutanol]; details: 2200 nM; in DMSO
Description: as §1

| Test System | level (log10) ([1]; 2200 nM) | level (log10) ([1]; 6700 nM) | level (log10) ([1]; 20000 nM) | level (log10) [2] | level (log10) [3] | level (log10) [4] | level (log10) [5] | level (log10) [6] | level (log10) [7] | level (log10) [8] | level (log10) [9] | level (log10) ([10]; 2200 nM) | level (log10) ([10]; 6700 nM) | level (log10) ([10]; 20000 nM) | level (log10) ([10]; 60000 nM) | level (log10) ([11]; 740 nM) | level (log10) ([11]; 2200 nM) | level (log10) [12] | level (log10) ([13]; 2200 nM) | level (log10) ([13]; 6700 nM) | level (log10) ([13]; 20000 nM) | level (log10) ([13]; 60000 nM) | level (log10) ([14]; 2200 nM) | level (log10) ([14]; 6700 nM) | level (log10) ([14]; 20000 nM) | level (log10) ([14]; 60000 nM) | level (log10) [15] | level (log10) [16] |
| --- | --- | --- | --- | --- | --- | --- | --- | --- | --- | --- | --- | --- | --- | --- | --- | --- | --- | --- | --- | --- | --- | --- | --- | --- | --- | --- | --- | --- |
| BE3C:uPA | 0.0035 ± 0.013 | -0.0025 ± 0.022 | -0.018 ± 0.031 | 0.007 ± 0.0085 | -0.0115 ± 0.0092 | -0.01 ± 0.024 | -0.009 ± 0.014 | -0.0005 ± 0.0078 | 0.0015 ± 0.0064 | 0.002 ± 0.0057 | -0.0035 ± 0.013 | -0.001 ± 0.018 | 0.006 ± 0.0071 | 0.0055 ± 0.0035 | -0.002 ± 0.0028 | 0.001 ± 0.0014 | -0.0045 ± 0.012 | 0.004 | 0.004 ± 0.013 | -0.002 ± 0.0042 | 0.0055 ± 0.0035 | 0.0255 ± 0.015 | 0.008 ± 0.013 | -0.0115 ± 0.0021 | -0.013 ± 0.0057 | 0.004 ± 0.018 | 0.007 ± 0.014 | -0.009 ± 0.0028 |
| BF4T:CCL2/MCP-1 | 0.0405 ± 0.025 | -0.004 ± 0.013 | -0.022 ± 0.0028 | 0.0535 ± 0.1 | -0.129 ± 0.056 | 0.037 ± 0.078 | 0.0115 ± 0.016 | 0.011 ± 0.082 | 0.0425 ± 0.037 | 0.025 ± 0.078 | 0.0515 ± 0.005 | 0.049 ± 0.058 | 0.037 ± 0.023 | -0.019 ± 0.0028 | -0.002 ± 0.034 | 0.0245 ± 0.043 | 0.0045 ± 0.016 | -0.003 ± 0.051 | 0.048 ± 0.031 | 0.0155 ± 0.056 | 0.019 ± 0.067 | 0.0365 ± 0.12 | -0.0165 ± 0.063 | 0.004 ± 0.047 | -0.0035 ± 0.052 | -0.0275 ± 0.025 | 0.032 ± 0.018 | 0.0205 ± 0.032 |
| BF4T:CCL26/Eotaxin-3 | 0.079 ± 0.03 | 0.0905 ± 0.029 | 0.141 ± 0.0028 | 0.0435 ± 0.05 | -0.143 ± 0.042 | 0.023 ± 0.042 | 0.028 ± 0.03 | 0.0185 ± 0.11 | -0.009 ± 0.15 | 0.0155 ± 0.09 | 0.036 ± 0.014 | 0.001 ± 0.09 | -0.0635 ± 0.05 | -0.179 ± 0.05 | -0.203 ± 0.0099 | 0.0225 ± 0.061 | 0.024 ± 0.055 | 0.0075 ± 0.083 | 0.0915 ± 0.039 | 0.0145 ± 0.019 | -0.0055 ± 0.013 | -0.031 ± 0.081 | 0.0055 ± 0.079 | -0.0155 ± 0.029 | -0.0165 ± 0.0092 | 0.018 ± 0.05 | -0.004 ± 0.027 | 0.044 ± 0.0057 |
| BF4T:CD54/ICAM-1 | 0.0355 ± 0.0064 | 0.0495 ± 0.016 | 0.032 ± 0.0042 | 0.0095 ± 0.035 | -0.0505 ± 0.0078 | 0.0035 ± 0.037 | 0.0085 ± 0.0092 | 0.0235 ± 0.0092 | 0.0055 ± 0.023 | -0.0025 ± 0.016 | 0.02 ± 0.0071 | 0.014 ± 0.013 | -0.006 ± 0.0014 | -0.0175 ± 0.00071 | -0.0325 ± 0.013 | -0.0105 ± 0.0078 | -0.0115 ± 0.0064 | -0.003 ± 0.014 | 0.011 ± 0.024 | -0.022 ± 0.0071 | -0.011 ± 0.0085 | 0.004 ± 0.0071 | -0.0065 ± 0.015 | -0.0155 ± 0.0021 | -0.0135 ± 0.005 | 0.0015 ± 0.043 | -0.014 ± 0.016 | 0.008 ± 0.0028 |
| BF4T:CD90 | -0.009 ± 0.0057 | -0.013 ± 0.0099 | -0.0145 ± 0.005 | 0.0075 ± 0.019 | -0.068 ± 0.013 | 0.005 ± 0.023 | 0.0025 ± 0.0035 | 0.0125 ± 0.019 | -0.004 ± 0.023 | 0.0185 ± 0.023 | 0.003 ± 0.014 | -0.0045 ± 0.016 | -0.008 ± 0.0028 | -0.018 ± 0.0014 | -0.0355 ± 0.0092 | -0.0185 ± 0.00071 | -0.0025 ± 0.021 | -0.008 ± 0.013 | 0.006 ± 0.025 | -0.01 ± 0.0042 | -0.001 ± 0.0014 | -0.0005 ± 0.0021 | -0.0015 ± 0.0021 | -0.02 ± 0.0085 | -0.0105 ± 0.005 | -0.0025 ± 0.025 | -0.0115 ± 0.015 | 0.0055 ± 0.0035 |
| BF4T:CD106/VCAM-1 | 0.0395 ± 0.03 | -0.039 ± 0.0085 | -0.0615 ± 0.0092 | 0.0275 ± 0.057 | -0.0975 ± 0.00071 | 0.0255 ± 0.052 | 0.008 ± 0.067 | 0.008 ± 0.03 | 0.007 ± 0.098 | 0.0165 ± 0.044 | 0.0065 ± 0.06 | 0.0245 ± 0.052 | 0.0035 ± 0.035 | -0.0285 ± 0.03 | -0.041 ± 0.0028 | 0.004 ± 0.051 | -0.009 ± 0.037 | 0.0135 ± 0.047 | -0.0045 ± 0.05 | -0.0015 ± 0.029 | 0.0115 ± 0.015 | 0.029 ± 0.0099 | 0.007 ± 0.068 | -0.0425 ± 0.036 | -0.046 ± 0.016 | 0.018 ± 0.04 | 0.0055 ± 0.0035 | 0.035 ± 0.031 |
| BF4T:CXCL8/IL-8 | 0.0115 ± 0.066 | -0.015 ± 0.014 | -0.004 ± 0.0014 | 0.0425 ± 0.098 | 0.04 ± 0.04 | 0.033 ± 0.047 | 0.062 ± 0.075 | 0.0035 ± 0.029 | 0.0255 ± 0.046 | 0.036 ± 0.054 | 0.043 ± 0.016 | 0.008 ± 0.0071 | 0.0015 ± 0.0035 | -0.0105 ± 0.0078 | -0.0055 ± 0.0078 | 0.0025 ± 0.005 | -0.0005 ± 0.012 | 0.0125 ± 0.005 | 0.028 ± 0.0014 | 0.017 ± 0.028 | 0.0155 ± 0.013 | 0.0145 ± 0.036 | -0.013 ± 0.018 | -0.0345 ± 0.013 | -0.0295 ± 0.013 | -0.0105 ± 0.035 | 0.0085 ± 0.029 | 0.082 ± 0.034 |
| BF4T:IL-1alpha | 0.023 ± 0.023 | 0.008 ± 0.016 | -0.0175 ± 0.015 | 0.01 ± 0.02 | 0.0405 ± 0.05 | 0.0135 ± 0.019 | 0.008 ± 0.023 | 0.012 ± 0.0014 | 0.005 ± 0.0085 | -0.0085 ± 0.021 | 0.0215 ± 0.015 | 0.0095 ± 0.021 | 0.004 ± 0.016 | -0.01 ± 0.014 | 0.0065 ± 0.018 | 0.0225 ± 0.03 | -0.002 ± 0.0057 | 0.0185 ± 0.047 | 0.003 ± 0.0028 | -0.0085 ± 0.023 | -0.0015 ± 0.005 | 0.013 ± 0.0099 | 0.008 ± 0.02 | -0.016 ± 0.0085 | -0.005 ± 0.0071 | 0.0155 ± 0.046 | 0.0155 ± 0.023 | -0.002 ± 0.031 |
